Experimental data: article PMC11301343
Positions count from the first letter of the chain named. Results are given in words; binding and its absence hold for the method and conditions named. Binding seen in cells or lysates may run through a third protein. Some entries that bind do so weakly or less than the wild type. Sequences can lack the tags named with a protein. Values belong to the molecule of their own block, whether it stands above or below them.

Sequences of proteins named here, by UniProt entry; tags and fusion partners are left off.
UniProt Q9H4L4: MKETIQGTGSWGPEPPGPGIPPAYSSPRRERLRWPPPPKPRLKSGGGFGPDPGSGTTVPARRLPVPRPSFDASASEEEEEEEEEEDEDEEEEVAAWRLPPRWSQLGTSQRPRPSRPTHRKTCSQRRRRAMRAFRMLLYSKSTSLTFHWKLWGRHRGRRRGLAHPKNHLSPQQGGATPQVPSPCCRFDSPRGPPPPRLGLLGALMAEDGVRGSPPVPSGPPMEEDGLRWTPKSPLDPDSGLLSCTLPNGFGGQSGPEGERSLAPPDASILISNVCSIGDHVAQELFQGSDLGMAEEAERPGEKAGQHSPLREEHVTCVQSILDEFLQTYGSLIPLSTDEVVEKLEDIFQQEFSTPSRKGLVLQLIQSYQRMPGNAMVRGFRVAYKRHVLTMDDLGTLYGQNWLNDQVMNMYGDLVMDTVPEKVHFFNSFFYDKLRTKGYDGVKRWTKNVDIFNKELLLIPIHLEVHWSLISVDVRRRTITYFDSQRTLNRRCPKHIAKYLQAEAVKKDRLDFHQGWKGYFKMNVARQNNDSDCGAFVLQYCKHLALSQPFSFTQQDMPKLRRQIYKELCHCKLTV

What was measured:
[1] = target: T1, 3 × flag-FSP1 K162R mutant (human, stably overexpressed in HT1080) (human) (UniProt Q9BRQ8); experiment: co-IP; HT1080 cells stably overexpressing 3xflag-FSP1 or 3xflag-FSP1 K162R; immunoprecipitation with FLAG-M2 beads; IB with anti-SENP3 antibody
T1 sequence: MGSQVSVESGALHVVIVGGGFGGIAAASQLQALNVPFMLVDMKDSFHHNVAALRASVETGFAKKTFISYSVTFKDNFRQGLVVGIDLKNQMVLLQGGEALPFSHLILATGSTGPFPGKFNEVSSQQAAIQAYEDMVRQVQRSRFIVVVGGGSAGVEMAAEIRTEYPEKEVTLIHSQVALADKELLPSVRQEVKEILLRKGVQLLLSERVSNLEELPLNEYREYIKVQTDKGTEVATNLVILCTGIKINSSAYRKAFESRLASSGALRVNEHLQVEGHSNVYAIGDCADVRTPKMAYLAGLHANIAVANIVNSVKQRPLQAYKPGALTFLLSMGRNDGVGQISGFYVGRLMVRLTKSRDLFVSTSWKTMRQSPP

[2] = target: T2, 3 × flag-FSP1 (human, stably overexpressed in HT1080) (human) (UniProt Q9BRQ8); experiment: as above
T2 sequence: T1 sequence with R162K

[3] = target: T3, 3 × flag-FSP1 (human, in HEK293T) (human) (UniProt Q9BRQ8); experiment: co-IP; HEK293T cells co-transfected for 36 h (flag-SENP3 + HA-FSP1, or GFP-SENP3 + 3xflag-FSP1; vectors as control); lysates incubated with anti-Flag M2 magnetic beads overnight at 4 °C; IB with anti-HA or anti-GFP
T3 sequence: T1 sequence with R162K

[4] = target: flag-SENP3 (human) (UniProt Q9H4L4); experiment: as above

binding [1]: binds | binding [2]: binds
Molecule: SENP3 in HT1080 cells (detected with anti-SENP3 antibody) (from UniProt Q9H4L4 1-574) (enzyme)

binding [3]: binds
Molecule: GFP-SENP3 (from UniProt Q9H4L4 1-574) (enzyme)

binding [4]: binds
B1: human HA-FSP1 (protein, UniProt Q9BRQ8-1 1-373)
chain: T1 sequence with R162K
